PubChem BioAssay AID504764, Drosophila RNAi Screening Center | 2011
The deposit covers about 22,000 reagents; this is an unselected part of those with a known target gene and a result. In the full data, 403 (1.9%) were called active. 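Unnormalised raw counts per well; ratio z-scores behind the hit calls and whether each hit raises or lowers signal are not deposited.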 The record does not give: the amount of reagent.

Aim: 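Knock-downs that raise or lower a Notch target reporter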 (primary screen)
System: Drosophila Kc167 cells
Reagent: long dsRNA against Drosophila genes
Timing: about 5 days (4 days dsRNA, then 24 h after transfection)
Treatment: transfection of constitutively active membrane-tethered Notch lacking the extracellular domain, read 24 h later
Read-out: 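Firefly luciferase from an E(spl)m3 reporter with active Notch, plus control-promoter and uninduced reporter wells for normalisation; unnormalised counts, duplicate wells a and b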
Reading the numbers: induced reporter light, run 1, well a and induced reporter light, run 1, well b: higher = more light from the Notch target reporter with active Notch; control promoter light, run 1, well a and control promoter light, run 1, well b: higher = more light from the viral control promoter (cell number, transfection, viability); uninduced reporter light, run 1, well a: higher = more light from the Notch target reporter without active Notch
Call rule: 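Wells with low control signal or poorly matching duplicates excluded; duplicates averaged; per source plate, z beyond ±2 for induced/control log2 ratio or beyond ±1.8 for induced/uninduced marks a hit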
Meaning of the calls: active = modifier hit (raised or lowered Notch signal); inactive = not a hit

The first 2 records, to show the layout:
CG6231 [DRSC15997] — induced reporter light, run 1, well a: 1.89e5; induced reporter light, run 1, well b: 1.77e5; control promoter light, run 1, well a: 1.82e5; control promoter light, run 1, well b: 1.94e5; uninduced reporter light, run 1, well a: 13540; outcome: inactive
CG12909 [DRSC06224] — induced reporter light, run 1, well a: 1.25e5; induced reporter light, run 1, well b: 1.36e5; control promoter light, run 1, well a: 1.39e5; control promoter light, run 1, well b: 1.59e5; uninduced reporter light, run 1, well a: 9870; outcome: inactive

Results, from the first entry:
CG6231 [DRSC15997] — induced reporter light, run 1, well a: 1.89e5; induced reporter light, run 1, well b: 1.77e5; control promoter light, run 1, well a: 1.82e5; control promoter light, run 1, well b: 1.94e5; uninduced reporter light, run 1, well a: 13540; outcome: inactive
CG12909 [DRSC06224] — induced reporter light, run 1, well a: 1.25e5; induced reporter light, run 1, well b: 1.36e5; control promoter light, run 1, well a: 1.39e5; control promoter light, run 1, well b: 1.59e5; uninduced reporter light, run 1, well a: 9870; outcome: inactive
CG30371 [DRSC06835] — induced reporter light, run 1, well a: 1.21e5; induced reporter light, run 1, well b: 1.38e5; control promoter light, run 1, well a: 1.38e5; control promoter light, run 1, well b: 1.32e5; uninduced reporter light, run 1, well a: 11635; outcome: inactive
Hat1 [DRSC12298] — induced reporter light, run 1, well a: 90735; induced reporter light, run 1, well b: 96805; control promoter light, run 1, well a: 84540; control promoter light, run 1, well b: 69965; uninduced reporter light, run 1, well a: 4610; outcome: inactive
CG13532 [DRSC04174] — induced reporter light, run 1, well a: 1.67e5; induced reporter light, run 1, well b: 1.53e5; control promoter light, run 1, well a: 1.28e5; control promoter light, run 1, well b: 1.64e5; uninduced reporter light, run 1, well a: 10970; outcome: inactive
CG8281 [DRSC10976] — induced reporter light, run 1, well a: 2.33e5; induced reporter light, run 1, well b: 2.23e5; control promoter light, run 1, well a: 1.93e5; control promoter light, run 1, well b: 1.98e5; uninduced reporter light, run 1, well a: 10685; outcome: inactive
TpnC47D [DRSC07564] — induced reporter light, run 1, well a: 1.24e5; induced reporter light, run 1, well b: 1.10e5; control promoter light, run 1, well a: 1.78e5; control promoter light, run 1, well b: 1.87e5; uninduced reporter light, run 1, well a: 11185; outcome: inactive
CG14238 [DRSC14732] — induced reporter light, run 1, well a: 1.47e5; induced reporter light, run 1, well b: 98185; control promoter light, run 1, well a: 2.51e5; control promoter light, run 1, well b: 1.70e5; uninduced reporter light, run 1, well a: 13055; outcome: inactive
Spn88Ea [DRSC17061] — induced reporter light, run 1, well a: 10320; induced reporter light, run 1, well b: 8280; control promoter light, run 1, well a: 8765; control promoter light, run 1, well b: 9015; uninduced reporter light, run 1, well a: 745; outcome: inactive
Csp [DRSC11860] — induced reporter light, run 1, well a: 1.31e5; induced reporter light, run 1, well b: 1.30e5; control promoter light, run 1, well a: 64320; control promoter light, run 1, well b: 77210; uninduced reporter light, run 1, well a: 9355; outcome: inactive
Acp53Ea [DRSC05916] — induced reporter light, run 1, well a: 1.23e5; induced reporter light, run 1, well b: 93520; control promoter light, run 1, well a: 1.36e5; control promoter light, run 1, well b: 1.61e5; uninduced reporter light, run 1, well a: 10485; outcome: inactive
Atg6 [DRSC15798] — induced reporter light, run 1, well a: 67600; induced reporter light, run 1, well b: 66630; control promoter light, run 1, well a: 78390; control promoter light, run 1, well b: 95510; uninduced reporter light, run 1, well a: 4432; outcome: inactive
